Some results were stated once for a whole list of compounds, not compound by compound. For at least one compound, name, drawing or mass did not settle the structure.
Tests used:
[1] = system: larvae of the mustard beetle (Phaedon cochleariae); assay: Phaedon test (spray treatment); assay type: in vivo; conditions: application rate 100 g/ba; Chinese cabbage leaf discs sprayed
[2] = system: larvae of the armyworm (Spodoptera frugiperda); assay: Spodoptera frugiperda test (spray treatment); assay type: in vivo; conditions: 100 g/ha; maize leaf discs sprayed

Compound | effect in % (kill of beetle larvae) [1] [%] | effect in % (kill of caterpillars) [2] [%]
CNC(=O)c1cc(Cl)cc(C)c1NC(=O)c1cc(Cn2nc(C(F)(F)F)nc2C(F)(F)F)nn1-c1ncccc1Cl [I-1-35] | ≥ 80 | –
CNC(=O)c1cc(C#N)cc(C)c1NC(=O)c1cc(Cn2cc(Cl)c(C(F)(F)C(F)(F)F)n2)nn1-c1ncccc1Cl [I-1-171] | ≥ 80 | ≥ 80
N#CCNC(=O)c1cc(Cl)cc(Cl)c1NC(=O)c1cc(Cn2cnc(C(F)(F)C(F)(F)F)n2)nn1-c1ncccc1Cl [I-1-337] | ≥ 80 | ≥ 80
O=C(NCC1CC1)c1cc(Cl)cc(Cl)c1NC(=O)c1cc(Cn2nc(C(F)(F)F)nc2C(F)(F)F)nn1-c1ncccc1Cl [I-1-293] | ≥ 80 | ≥ 80
Cc1cc(C#N)cc(C(N)=O)c1NC(=O)c1cc(Cn2cnc(C(F)(F)C(F)(F)F)n2)nn1-c1ncccc1Cl [I-1-350] | ≥ 80 | ≥ 80
Cc1cc(Cl)cc(C(=O)NC(C)C)c1NC(=O)c1cc(Cn2cc(C(F)(F)F)cn2)nn1-c1ncccc1Cl [I-1-43] | ≥ 80 | ≥ 80
CNC(=O)c1cc(I)cc(C)c1NC(=O)c1cc(Cn2nc(C(F)(F)F)cc2C(F)(F)F)nn1-c1ncccc1Cl [I-1-227] | ≥ 80 | ≥ 80
O=C(NC1CC1)c1cc(Cl)cc(Cl)c1NC(=O)c1cc(Cn2ccc(C(F)(F)F)n2)nn1-c1ncccc1Cl [I-1-315] | – | ≥ 80
Cc1cc(Cl)cc(C(=O)NCC#N)c1NC(=O)c1cc(Cn2nc(C(F)(F)F)nc2C(F)(F)F)nn1-c1ncccc1Cl [I-1-55] | ≥ 80 | ≥ 80
Cc1cc(Cl)cc(C(=O)NC(C)C)c1NC(=O)c1cc(Cn2cc(Cl)c(C(F)(F)C(F)(F)F)n2)nn1-c1ncccc1Cl [I-1-31] | ≥ 80 | –
CNC(=O)c1cc(Cl)cc(Cl)c1NC(=O)c1cc(Cn2nc(C(F)(F)F)cc2C(F)(F)F)nn1-c1ncccc1Cl [I-1-304] | ≥ 80 | ≥ 80
Cc1cc(Cl)cc(C(=O)NC(C)C)c1NC(=O)c1cc(Cn2nnn(-c3ccc(Cl)cc3)c2=O)nn1-c1ncccc1Cl [I-1-168] | ≥ 80 | ≥ 80
CNC(=O)c1cc(Cl)cc(C)c1NC(=O)c1cc(Cn2nnn(-c3ccc(Cl)cc3)c2=O)nn1-c1ncccc1Cl [I-1-38] | ≥ 80 | ≥ 80
Cc1cc(I)cc(C(=O)NC(C)(C)C)c1NC(=O)c1cc(Cn2nc(C(F)(F)F)nc2C(F)(F)F)nn1-c1ncccc1Cl [I-1-285] | ≥ 80 | ≥ 80
Cc1cc(Cl)cc(C(=O)NC(C)C)c1NC(=O)c1cc(Cn2ccc(C(F)(F)F)n2)nn1-c1ncccc1Cl [I-1-6] | ≥ 80 | –
O=C(NC1CC1)c1cc(Cl)cc(Cl)c1NC(=O)c1cc(Cn2cnc(C(F)(F)C(F)(F)F)n2)nn1-c1ncccc1Cl [I-1-344] | – | ≥ 80
CNC(=O)c1cc(Cl)cc(C)c1NC(=O)c1cc(Cn2cc(Cl)cn2)nn1-c1ncccc1Cl [I-1-4] | ≥ 80 | –
Cc1cc(Cl)cc(C(=O)NC(C)C)c1NC(=O)c1cc(Cn2ccc(Cl)n2)nn1-c1ncccc1Cl [I-1-103] | – | ≥ 80
Cc1cc(Cl)cc(C(=O)NC(C)C)c1NC(=O)c1cc(Cn2cnc(C(C)(C)C)n2)nn1-c1ncccc1Cl [I-1-161] | – | ≥ 80
Cc1cc(Cl)cc(C(N)=O)c1NC(=O)c1cc(Cn2nc(C(F)(F)F)cc2C(F)(F)F)nn1-c1ncc(C(F)(F)F)cc1Cl [I-2-17] | – | ≥ 80

Compound | effect in % (kill of beetle larvae) [1] [%] | effect in % (kill of caterpillars) [2] [%]
Cc1cc(Cl)cc(C(=O)NC(C)C)c1NC(=O)c1cc(Cn2cnc(C(F)(F)C(F)(F)F)n2)nn1-c1ncccc1Cl [I-1-341] | – | ≥ 80
CNC(=O)c1cc(Cl)cc(C)c1NC(=O)c1cc(Cn2cc(Cl)c(C(F)(F)C(F)(F)F)n2)nn1-c1ncccc1Cl [I-1-30] | ≥ 80 | –
CNC(=O)c1cc(Cl)cc(C)c1NC(=O)c1cc(Cn2nc(C(F)F)c([N+](=O)[O-])c2C(F)F)nn1-c1ncccc1Cl [I-1-257] | – | ≥ 80
Cc1cc(Cl)cc(C(=O)NC(C)C)c1NC(=O)c1cc(Cn2cc(Cl)c(C(F)(F)F)n2)nn1-c1ncccc1Cl [I-1-15] | ≥ 80 | –
Cc1cc(Cl)cc(C(=O)NC(C)(C)C[S+](C)[O-])c1NC(=O)c1cc(Cn2cc(Br)c(C(F)(F)F)n2)nn1-c1ncccc1Cl (stereo not drawn) [I-1-136] | – | ≥ 80
Cc1cc(I)cc(C(=O)NC2CC2)c1NC(=O)c1cc(Cn2nc(C(F)F)c([N+](=O)[O-])c2C(F)F)nn1-c1ncccc1Cl [I-1-268] | – | ≥ 80
Cc1cc(Cl)cc(C(=O)NC(C)C)c1NC(=O)c1cc(Cn2cc(I)c(C(F)(F)C(F)(F)F)n2)nn1-c1ncccc1Cl [I-1-14] | ≥ 80 | –
CNC(=O)c1cc(Cl)cc(C)c1NC(=O)c1cc(Cn2cnc(-c3ccc(Cl)cc3)n2)nn1-c1ncccc1Cl [I-1-153] | – | ≥ 80
CC(C)NC(=O)c1cc(Cl)cc(Cl)c1NC(=O)c1cc(Cc2ccoc2)nn1-c1ncccc1Cl [I-1-301] | – | ≥ 80
CNC(=O)c1cc(Cl)cc(C)c1NC(=O)c1cc(Cn2ccc(Cl)n2)nn1-c1ncccc1Cl [I-1-102] | – | ≥ 80
CNC(=O)c1cc(Cl)cc(C)c1NC(=O)c1cc(Cn2cc(Cl)c(C(F)(F)F)n2)nn1-c1ncccc1Cl [I-1-17] | ≥ 80 | –
CNC(=O)c1cc(Cl)cc(C)c1NC(=O)c1cc(Cn2ccc(C(F)(F)C(F)(F)F)n2)nn1-c1ncccc1Cl [I-1-19] | ≥ 80 | –
Cc1cc(Br)cc(C(=O)NC(C)C)c1NC(=O)c1cc(Cn2nc(C(F)(F)F)nc2C(F)(F)F)nn1-c1ncccc1Cl [I-1-22] | ≥ 80 | –
Cc1cc(Cl)cc(C(=O)NC2CC2)c1NC(=O)c1cc(Cn2nc(C)c(Br)c2C)nn1-c1ncccc1Cl [I-1-271] | – | ≥ 80
CNC(=O)c1cc(Cl)cc(Cl)c1NC(=O)c1cc(Cn2cnc(C(F)(F)C(F)(F)F)n2)nn1-c1ncccc1Cl [I-1-342] | ≥ 80 | –
Cc1cc(Cl)cc(C(=O)NCC#N)c1NC(=O)c1cc(Cn2cc(Cl)c(C(F)(F)C(F)(F)F)n2)nn1-c1ncccc1Cl [I-1-32] | ≥ 80 | –
Cc1cc(Cl)cc(C(=O)NC(C)C)c1NC(=O)c1cc(Cn2nc(C(F)(F)F)cc2C(F)(F)F)nn1-c1ncccc1Cl [I-1-2] | ≥ 80 | –
CSc1ncn(Cc2cc(C(=O)Nc3c(C)cc(Cl)cc3C(=O)NC3CC3)n(-c3ncccc3Cl)n2)n1 [I-1-263] | – | ≥ 80
CNC(=O)c1cc(Cl)cc(C)c1NC(=O)c1cc(Cn2cnc(C(C)(C)C)n2)nn1-c1ncccc1Cl [I-1-160] | – | ≥ 80
Cc1cc(C#N)cc(C(=O)NCC#N)c1NC(=O)c1cc(Cn2cnc(C(F)(F)C(F)(F)F)n2)nn1-c1ncccc1Cl [I-1-351] | – | ≥ 80

Compound | effect in % (kill of beetle larvae) [1] [%] | effect in % (kill of caterpillars) [2] [%]
CC(C)NC(=O)c1cc(Cl)cc(Cl)c1NC(=O)c1cc(Cn2ccc(C(F)(F)F)n2)nn1-c1ncccc1Cl [I-1-314] | – | ≥ 80
CC(C)NC(=O)c1cc(Cl)cc(Cl)c1NC(=O)c1cc(Cn2cnc(C(F)(F)C(F)(F)F)n2)nn1-c1ncccc1Cl [I-1-340] | ≥ 80 | –
CNC(=O)c1cc(Cl)cc(C)c1NC(=O)c1cc(Cn2cc(I)c(C(F)(F)C(F)(F)F)n2)nn1-c1ncccc1Cl [I-1-16] | ≥ 80 | –
Cc1cc(Cl)cc(C(=O)NC(C)C)c1NC(=O)c1cc(Cn2ccc(C(F)(F)C(F)(F)F)n2)nn1-c1ncccc1Cl [I-1-18] | ≥ 80 | –
CNC(=O)c1cc(Cl)cc(Cl)c1NC(=O)c1cc(Cn2nc(C(F)F)c([N+](=O)[O-])c2C(F)F)nn1-c1ncccc1Cl [I-1-266] | – | ≥ 80
CCNC(=O)c1cc(I)cc(C)c1NC(=O)c1cc(Cn2ccc(C(F)(F)F)n2)nn1-c1ncccc1Cl [I-1-250] | – | ≥ 80
CNC(=O)c1cc(F)cc(C)c1NC(=O)c1cc(Cn2nc(C(F)(F)F)cc2C(F)(F)F)nn1-c1ncccc1Cl [I-1-221] | – | ≥ 80
O=C(NC1CC1)c1cc(Cl)cc(Cl)c1NC(=O)c1cc(Cn2nc(C(F)F)c([N+](=O)[O-])c2C(F)F)nn1-c1ncccc1Cl [I-1-261] | – | ≥ 80
Cc1cc(I)cc(C(=O)NC(C)C)c1NC(=O)c1cc(Cn2nc(C(F)(F)F)cc2C(F)(F)F)nn1-c1ncccc1Cl [I-1-230] | ≥ 80 | –
Cc1cc(Cl)cc(C(=O)NC(C)C)c1NC(=O)c1cc(Cn2nc(C(F)(F)F)nc2C(F)(F)F)nn1-c1ncccc1Cl [I-1-5] | ≥ 80 | –
CSc1ncn(Cc2cc(C(=O)Nc3c(C)cc(Cl)cc3C(=O)NC(C)C)n(-c3ncccc3Cl)n2)n1 [I-1-262] | – | ≥ 80
Cc1cc(I)cc(C(=O)NC2CC2)c1NC(=O)c1cc(Cn2ccc(C(F)(F)F)n2)nn1-c1ncccc1Cl [I-1-249] | – | ≥ 80
CNC(=O)c1cc(Cl)cc(C)c1NC(=O)c1cc(Cn2nc(C)c(Br)c2C)nn1-c1ncccc1Cl [I-1-270] | – | ≥ 80
Cc1cc(Cl)cc(C(=O)NC(C)C)c1NC(=O)c1cc(Cn2nc(C)c(Br)c2C)nn1-c1ncccc1Cl [I-1-269] | – | ≥ 80
CC(C)NC(=O)c1cc(Cl)cc(Cl)c1NC(=O)c1cc(Cc2cncnc2)nn1-c1ncccc1Cl [I-1-318] | – | ≥ 80
CNC(=O)c1cc(Cl)cc(C)c1NC(=O)c1cc(Cn2cc(Br)c(C(F)(F)C(F)(F)F)n2)nn1-c1ncccc1Cl [I-1-34] | ≥ 80 | –
NC(=O)c1cc(Cl)cc(Cl)c1NC(=O)c1cc(Cn2ccc(C(F)(F)F)n2)nn1-c1ncccc1Cl [I-1-311] | – | ≥ 80
Cc1cc(Cl)cc(C(=O)NC(C)C)c1NC(=O)c1cc(Cn2cnc(-c3ccc(Cl)cc3)n2)nn1-c1ncccc1Cl [I-1-154] | – | ≥ 80

Reference: US8101550B2, “Anthranilic acid diamide derivative with hetero-aromatic and hetero-cyclic substituents” (Bayer Cropscience AG, priority 2006, dated 2012)
